# Experimental data published in the supplement of paper PMC12067093, “Discovery and optimisation of a covalent ligand for TRIM25 and its application to targeted protein ubiquitination” (Chemical Science, 2025).
# The list shows a part of the results.
# Compound: Cc1cc(ccc1-c1ccccc1)C(=O)N1CCCN(CC1)C(=O)CCl [compound 10]
# Assay: probe-labelled cysteine peptide fold change vs DMSO (competition) (log2 fold change); higher = less target engagement (more negative = stronger competition)
# Conditions: THP-1, incubation time: 4 h
# 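Further: competitive profiling in live THP-1 cells: cysteine peptides tagged with an iodoacetamide desthiobiotin (IA-DTB) probe, intensity after compound treatment relative to DMSO-treated cells.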
Target,probe-labelled cysteine peptide fold change (10 µM),probe-labelled cysteine peptide fold change (50 µM)
BRAP_Q7Z569_221_AQADADSFYMTCNGR (UniProt Q7Z569),0.13,0.0989
BOP1_Q14137_108_KTTEEQVQASTPCPR (UniProt Q14137),-0.0259,-0.571
BAZ2B_Q9UIF8_1960_GCHTYCHRPK (UniProt Q9UIF8),0.0435,-0.0125
AUP1_Q9Y679_124_VLISNHVTPFDHNIVNLLTTCSTPLLNSPPSFVCWSR (UniProt Q9Y679),-0.188,-0.0869
BCLAF1_Q9NYF8_688_CDSADLR (UniProt Q9NYF8),-0.19,-0.328
BAG6_P46379_856_TNLEFLQEQFNSIAAHVLHCTDSGFGAR (UniProt P46379),0.0826,0.0332
BARGIN_Q6ZT62_213_RKVEQCRDEYLADLYHFVTK (UniProt Q6ZT62),-0.115,-0.074
BCL2L2_Q92843_29_GYVCGAGPGEGPAADPLHQAMR (UniProt Q92843),-0.232,0.0369
BIRC6_Q9NR09_2067_HLCISGTPK (UniProt Q9NR09),0.0557,0.28
BOLA2B_Q9H3K6_59_LVNACLAEELPHIHAFEQK (UniProt Q9H3K6),-0.0829,-0.00866
BCAT2_O15382_342_EVFGSGTACQVCPVHR (UniProt O15382),-0.0334,-0.296
BOP1_Q14137_404_DLQPFPTCQALVYR (UniProt Q14137),-0.119,-0.479
BAZ2A_Q9UIF9_1037_SEVEMEGPEECLGR (UniProt Q9UIF9),-0.385,-0.476
BCAT1_P54687_293_CILDLAHQWGEFK (UniProt P54687),0.0141,-0.125
BORCS6_Q96GS4_67_TSSCGVVHRPER (UniProt Q96GS4),0.0369,-0.256
BDP1_A6H8Y1_2039_IVHECQELSSPVITTSPASFEENK (UniProt A6H8Y1),-0.401,-0.41
B4GALT3_O60512_119_YRPAGCEPR (UniProt O60512),-0.0822,0.0489
BANK1_Q8NDB2_349_ELPTLLHCAAK (UniProt Q8NDB2),0.0399,-0.0376
BIN2_Q9UBW5_205_IGCYVTIFQNISNLR (UniProt Q9UBW5),-0.0758,0.512
BCKDHB_P21953_207_SPWGCVGHGALYHSQSPEAFFAHCPGIK (UniProt P21953),-0.0739,-0.0892
B4GAT1_O43505_159_VAMHLVCPSR (UniProt O43505+B4GAT1),0.00493,0.0343
BAZ1B_Q9UIG0_1213_AFHLFCLR (UniProt Q9UIG0),-0.0183,-0.0178
BIRC2_Q13490_315_CWESGDDPWVEHAK (UniProt Q13490),-0.0327,-0.0477
BIRC6_Q9NR09_4813+4828_LPCPEGLDPDTDDAPEVCR (UniProt Q9NR09),-0.126,0.236

Target,probe-labelled cysteine peptide fold change (10 µM),probe-labelled cysteine peptide fold change (50 µM)
BIRC6_Q9NR09_3773_TAIENATVAFFLQCISCHPNNQK (UniProt Q9NR09),0.213,0.136
AURKA_O14965_393_EVLEHPWITANSSKPSNCQNK (UniProt O14965),-0.12,-0.525
BIRC6_Q9NR09_1183_LCPFLEDHKEDILCGPVWLASGLDLSGHAGMLTLTSPK (UniProt Q9NR09),0.109,-0.00448
ATXN2_Q99700_556_VVNGGVPWPSPCPSPSSRPPSR (UniProt Q99700),-0.149,-0.419
BAZ1A_Q9NRL2_547_SLDLDSCTLSEILR (UniProt Q9NRL2),-0.00968,0.0572
BAZ1A_Q9NRL2_537_SALSAVASLAAAWPQLHQGCSLK (UniProt Q9NRL2),-0.118,-0.147
BIRC6_Q9NR09_1357_TDDGQITEHAQSLVLDTLCWLAGVHSNGPGSSK (UniProt Q9NR09),0.242,0.176
BIRC6_Q9NR09_3108_AFHDMGGVQLICNNMVTSTR (UniProt Q9NR09),-0.156,0.211
BAZ1A_Q9NRL2_764_QEQINCVTR (UniProt Q9NRL2),0.0365,0.135
BAZ1B_Q9UIG0_120_YAVGEECDFEVGK (UniProt Q9UIG0),-0.106,0.0768
AZU1_P20160_52_HFCGGALIHAR (UniProt P20160),-0.267,-0.0232
BAZ2A_Q9UIF9_583_WQGETWYYGPCGK (UniProt Q9UIF9),0.0264,0.0666
BCOR_Q6W2J9_1311_QAQPSCAPASRPPAK (UniProt Q6W2J9),-0.0417,-0.0219
BCAS3_Q9H6U6_412_VQDICFSHDCR (UniProt Q9H6U6),0.0615,0.235
BAZ1B_Q9UIG0_1348_CEEILHK (UniProt Q9UIG0),-0.0204,0.0263
BRAP_Q7Z569_264_CTVCLER (UniProt Q7Z569),0.162,-0.0218
BPTF_Q12830_1969_IICPIGVPETPK (UniProt Q12830),0.148,0.0317
BABAM2_Q9NXR7_245_IEHALGGSSALHIPAFPGGGCLIDYVPQVCHLLTNK (UniProt Q9NXR7),-0.195,-0.384
AZU1_P20160_149_CQVAGWGSQR (UniProt P20160),-0.188,-0.0803
ATXN10_Q9UBB4_382_LIGNLCYK (UniProt Q9UBB4),0.088,0.11
BIRC6_Q9NR09_613_TQGESISEQGSTDNESCTNSELNSPLVR (UniProt Q9NR09),-0.291,-0.0326
BAZ1B_Q9UIG0_1175_MHVLLGMLDACIK (UniProt Q9UIG0),-0.0243,-0.0283
BAG2_O95816_142_SHLMSLYSACSSEVPHGPVDQK (UniProt O95816),0.233,0.256
ATXN1L_P0C7T5_568_TTQLFSLPCHR (UniProt P0C7T5),-0.104,0.176

Target,probe-labelled cysteine peptide fold change (10 µM),probe-labelled cysteine peptide fold change (50 µM)
AURKB_Q96GD4_191_TATIMEELADALMYCHGKK (UniProt Q96GD4),0.0441,-0.459
BABAM1_Q9NWV8_222_TILVYSRPPCQPQFSLTEPMKK (UniProt Q9NWV8),-0.0728,-0.794
BAZ1A_Q9NRL2_404_PREDMECDDLK (UniProt Q9NRL2),-0.207,-0.169
BRAT1_Q6PJG6_265_DPIPAAHSFVDLLLCVAR (UniProt Q6PJG6),0.07,-0.312
BAG1_Q99933_322_VQAFLAECDTVEQNICQETER (UniProt Q99933),0.15,-0.17
BIRC2_Q13490_110_QLYPSCSFIQNLVSASLGSTSK (UniProt Q13490),-0.0674,-0.211
BAZ2A_Q9UIF9_888_DVPSLGVLQEGLLCQGDSLGEVQDLLVR (UniProt Q9UIF9),-0.134,0.198
BAZ1A_Q9NRL2_232_QHCEPQDGVIK (UniProt Q9NRL2),-0.17,-0.0315
BRAF_P15056_696_LMAECLK (UniProt P15056),0.0304,0.0117
BRAP_Q7Z569_164_SAMLCILTVPAAMTSHDLMK (UniProt Q7Z569),0.132,0.0808
BLM_P54132_120_EVVCTTQNTPTVK (UniProt P54132),-0.14,-0.117
BIRC6_Q9NR09_62_DGCMHCDADGLHSLSYHPALNAILAVTSR (UniProt Q9NR09),0.0345,-0.0517
BAZ2A_Q9UIF9_1660_SAAQVCLCLGQLER (UniProt Q9UIF9),0.0197,0.00975
BOD1L1_Q8NFC6_1618_EGESGECAVAESEDR (UniProt Q8NFC6),-0.29,-0.1
BCORL1_Q5H9F3_1709_LLGSEVEFQSCNS (UniProt Q5H9F3),0.158,0.132
BCAT2_O15382_147_LCLPSFDKLELLECIR (UniProt O15382),-0.159,-0.0428
BAZ1B_Q9UIG0_1435_TEQCLVALLHK (UniProt Q9UIG0),-0.093,-0.0339
BCKDK_O14874_111+118_CLPFIIGCNPTILHVHELYIR (UniProt O14874),0.237,0.162
ATXN10_Q9UBB4_95_NACIECSVNQNSIR (UniProt Q9UBB4),0.233,0.166
B2M_P61769_100_DEYACR (UniProt P61769),-0.108,0.439
BIRC6_Q9NR09_566_HQEQHNIPFPCLLAGGLLTYK (UniProt Q9NR09),-0.0568,-0.0756
BLM_P54132_468_ELNFSHLPSNSVSPGDCLLTTTLGK (UniProt P54132),-0.171,-0.465
